By Ki is commonly meant a measure of affinity in units of concentration, obtained from inhibition or displacement. Low values mean higher affinity, high ones lower affinity. What is called IC50 is the concentration that gives 50% inhibition. Low readings indicate greater potency in that assay, high ones weaker potency in that assay.

Protein sequences, listed by entry. Tags and fused reporters are not part of them.
UniProt P31645, whole entry: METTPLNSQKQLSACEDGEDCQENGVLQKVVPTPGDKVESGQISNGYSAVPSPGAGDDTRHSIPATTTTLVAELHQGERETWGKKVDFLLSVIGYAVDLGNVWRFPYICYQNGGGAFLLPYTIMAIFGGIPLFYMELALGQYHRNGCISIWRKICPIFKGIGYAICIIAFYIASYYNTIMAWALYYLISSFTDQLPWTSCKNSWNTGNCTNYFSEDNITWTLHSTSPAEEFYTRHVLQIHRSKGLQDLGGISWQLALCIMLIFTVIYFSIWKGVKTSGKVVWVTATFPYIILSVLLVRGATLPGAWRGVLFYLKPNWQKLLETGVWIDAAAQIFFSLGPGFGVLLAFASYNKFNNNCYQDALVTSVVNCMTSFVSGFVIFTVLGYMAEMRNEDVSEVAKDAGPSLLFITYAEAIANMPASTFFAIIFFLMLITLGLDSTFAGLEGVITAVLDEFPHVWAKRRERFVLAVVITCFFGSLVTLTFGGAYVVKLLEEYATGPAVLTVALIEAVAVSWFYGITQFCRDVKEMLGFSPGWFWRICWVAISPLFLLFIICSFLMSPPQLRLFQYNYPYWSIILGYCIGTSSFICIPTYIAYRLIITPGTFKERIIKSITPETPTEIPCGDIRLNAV
UniProt P23975, whole entry: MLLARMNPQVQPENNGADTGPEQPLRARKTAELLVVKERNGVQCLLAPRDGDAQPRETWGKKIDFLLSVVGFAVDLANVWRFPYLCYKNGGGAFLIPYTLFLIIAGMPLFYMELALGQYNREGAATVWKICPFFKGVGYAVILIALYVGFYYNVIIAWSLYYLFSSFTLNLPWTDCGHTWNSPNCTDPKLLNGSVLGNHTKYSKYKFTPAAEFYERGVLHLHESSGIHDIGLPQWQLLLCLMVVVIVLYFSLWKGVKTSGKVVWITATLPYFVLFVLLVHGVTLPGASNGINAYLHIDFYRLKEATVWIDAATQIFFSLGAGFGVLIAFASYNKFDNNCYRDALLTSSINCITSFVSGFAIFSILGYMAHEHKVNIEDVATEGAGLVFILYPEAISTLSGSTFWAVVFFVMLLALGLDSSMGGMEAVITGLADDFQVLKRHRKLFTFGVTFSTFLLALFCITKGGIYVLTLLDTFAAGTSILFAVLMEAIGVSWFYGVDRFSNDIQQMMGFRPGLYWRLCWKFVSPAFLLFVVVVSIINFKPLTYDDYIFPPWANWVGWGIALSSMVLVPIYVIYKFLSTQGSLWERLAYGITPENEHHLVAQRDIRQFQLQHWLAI
UniProt Q01959, whole entry: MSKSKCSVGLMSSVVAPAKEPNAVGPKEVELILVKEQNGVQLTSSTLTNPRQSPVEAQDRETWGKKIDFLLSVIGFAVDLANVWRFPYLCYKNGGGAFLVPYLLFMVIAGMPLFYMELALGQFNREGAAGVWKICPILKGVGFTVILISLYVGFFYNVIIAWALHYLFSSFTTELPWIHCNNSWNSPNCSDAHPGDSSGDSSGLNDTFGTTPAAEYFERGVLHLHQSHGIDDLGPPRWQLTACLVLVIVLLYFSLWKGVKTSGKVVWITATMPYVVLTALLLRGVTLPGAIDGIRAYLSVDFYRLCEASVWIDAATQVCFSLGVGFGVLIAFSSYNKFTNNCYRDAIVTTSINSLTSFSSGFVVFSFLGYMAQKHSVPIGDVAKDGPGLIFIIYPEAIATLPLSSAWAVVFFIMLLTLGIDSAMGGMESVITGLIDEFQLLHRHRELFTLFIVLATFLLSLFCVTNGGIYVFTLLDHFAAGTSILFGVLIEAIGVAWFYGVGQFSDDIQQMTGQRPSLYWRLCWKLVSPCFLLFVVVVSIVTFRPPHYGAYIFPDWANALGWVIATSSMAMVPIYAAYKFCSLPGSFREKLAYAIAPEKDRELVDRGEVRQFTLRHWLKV

Like-named read-outs stand apart in the source and are kept apart here. Where only a bound is given, the exact number is not on record here.

One assay addresses T1, 5‐HT2C receptor (Homo sapiens, UniProt P28335).
T1 sequence (P28335 33-458): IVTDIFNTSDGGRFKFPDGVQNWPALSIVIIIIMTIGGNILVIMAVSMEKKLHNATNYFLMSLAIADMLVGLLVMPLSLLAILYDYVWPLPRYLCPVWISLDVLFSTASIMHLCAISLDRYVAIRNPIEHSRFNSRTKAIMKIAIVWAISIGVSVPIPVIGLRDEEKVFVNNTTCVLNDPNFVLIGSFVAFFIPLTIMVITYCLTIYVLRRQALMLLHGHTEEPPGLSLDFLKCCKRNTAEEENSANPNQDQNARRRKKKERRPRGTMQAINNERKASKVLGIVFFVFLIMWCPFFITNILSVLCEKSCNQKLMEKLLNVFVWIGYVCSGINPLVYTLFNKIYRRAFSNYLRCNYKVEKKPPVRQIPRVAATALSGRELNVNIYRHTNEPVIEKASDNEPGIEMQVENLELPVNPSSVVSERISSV
Kind of assay: biochemical. Type of assay: binding.

In a further assay the target is human SERT (Homo sapiens, UniProt P31645). Kind of assay: cell-based.
For a further assay, the target named is human NET (Homo sapiens, UniProt P23975). Kind of assay: cell-based.
The target of another assay is human DAT (Homo sapiens, UniProt Q01959). Kind of assay: cell-based.

In turn, `CCOC(=O)C1(c2ccccc2)CCN(C)CC1` [Pethidine] showed an inhibition constant Ki on 5‐HT2C receptor of 15 ± 0.1 µM. Also, the IC50 against human SERT was 1.6 µM; against human SERT (SERT inhibition in vitro IC50), 1.6 µM; against human NET, 1.6 µM; against human DAT, greater than 100 µM.
